Laboratory results: PubChem BioAssay AID686938 (Drosophila RNAi Screening Center, 2013)
Aim: 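Knock-downs reducing store-operated calcium influx in Drosophila cells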 (primary screen). Cell system: Drosophila S2R+ cells. Reagent: long dsRNA against Drosophila genes, about 0.25 µg dsRNA per well, roughly 10,000 cells. Time to read-out: 5 days of knock-down before the calcium assay. Treatment: thapsigargin (SERCA pump blocker) to empty calcium stores; entry signal taken 4 min after adding it. Measured: 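Duplicate raw fluo-4 intensities per well from a plate reader, at rest and four minutes after thapsigargin emptied calcium stores; entry-to-rest ratio filled for only some wells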. Reading the numbers: calcium entry signal: higher = stronger calcium signal after store depletion; entry to resting ratio: higher = more calcium entry relative to resting level; resting calcium signal: higher = higher resting calcium signal. Units: calcium entry signal in fluorescence units; resting calcium signal in fluorescence units. Active means: 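Hit if the duplicate-averaged plate z-score for entry over resting signal is under −3; wells with weak total dye signal (Fmax z < −2) or more than 5 off-targets removed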. Meaning of the calls: active = strongly reduced calcium entry; inactive = no strong reduction.
In all, the deposit lists about 23,000 reagents; below is an unselected part of those with a known target gene and a result. Over the whole deposit, 75 (0.33%) were called active. 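Raw plate signals without normalisation; calls rest on plate z-scores that were not deposited; ratio present for only 364 wells.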 Entries without a mark were called inactive. The numbers tell different reagents against one gene apart. A plus sign joins genes that one reagent is predicted to hit. Reagent sequences are not shown. The record does not give: the dose of the treatment.

| gene | reagent | calcium entry signal, replicate 1 | calcium entry signal, replicate 2 | entry to resting ratio | resting calcium signal, replicate 1 | resting calcium signal, replicate 2 |
| --- | --- | --- | --- | --- | --- | --- |
| Ork1 | 1 | 2.53e7 | 3.10e7 | – | 1.20e7 | 1.51e7 |
| CalpB | 1 | 4.64e7 | 4.07e7 | – | 2.79e7 | 1.63e7 |
| cDIP | 1 | 5.52e7 | 4.16e7 | – | 2.66e7 | 1.83e7 |
| CG6209 | 1 | 3.39e7 | 5.53e7 | – | 1.75e7 | 2.23e7 |
| CG34135 + Nasp + CG11768 | 1 | 4.57e7 | 3.25e7 | – | 2.08e7 | 1.61e7 |
| CG34135 + Nasp + CG11768 | 2 | 3.83e7 | 2.67e7 | – | 1.99e7 | 1.42e7 |
| CG34135 + Nasp + CG11768 | 3 | 4.65e7 | 3.02e7 | – | 2.14e7 | 1.45e7 |
| tmod | 1 | 3.52e7 | 3.14e7 | – | 1.66e7 | 1.31e7 |
| tmod | 2 | 3.30e7 | 3.54e7 | – | 1.81e7 | 1.68e7 |
| tmod | 3 | 4.55e7 | 4.64e7 | – | 2.26e7 | 2.03e7 |
| tmod | 4 | 3.01e7 | 5.40e7 | – | 1.38e7 | 2.28e7 |
| nito | 1 | 2.73e7 | 2.56e7 | – | 1.27e7 | 1.20e7 |
| Porin2 | 1 | 2.40e7 | 3.29e7 | – | 1.18e7 | 1.35e7 |
| CG2126 | 1 | 6.14e7 | 5.06e7 | 2.2 | 2.74e7 | 2.09e7 |
| Actn3 | 1 | 2.71e7 | 4.92e7 | – | 1.45e7 | 6.12e7 |
| lncRNA:CR31647 | 1 | 2.97e7 | 4.80e7 | – | 1.41e7 | 2.37e7 |
| Setd3 | 1 | 3.76e7 | 5.81e7 | – | 1.91e7 | 2.38e7 |
| Setd3 | 2 | 3.47e7 | 5.03e7 | – | 1.68e7 | 2.15e7 |
| Swt1 | 1 | 3.59e7 | 4.10e7 | – | 1.63e7 | 1.83e7 |
| CG7785 | 1 | 3.58e7 | 3.65e7 | – | 4.24e7 | 1.69e7 |
| CG7841 | 1 | 3.18e7 | 5.61e7 | – | 1.60e7 | 2.28e7 |
| CG3226 | 1 | 4.03e7 | 4.46e7 | – | 1.69e7 | 2.04e7 |
| Trs31 | 1 | 4.80e7 | 4.09e7 | – | 2.14e7 | 2.12e7 |
| ogre | 1 | 4.22e7 | 4.59e7 | – | 2.01e7 | 2.08e7 |
| Nipped-A | 1 | 2.92e7 | 4.58e7 | – | 1.41e7 | 1.98e7 |
| Nipped-A | 2 | 2.91e7 | 2.54e7 | – | 1.80e7 | 1.63e7 |
| Nipped-A | 3 | 2.98e7 (active) | 3.08e7 | – | 2.03e7 | 1.91e7 |
| Nipped-A | 4 | 2.52e7 | 2.47e7 | – | 1.55e7 | 1.45e7 |
| Nipped-A | 5 | 2.29e7 | 3.82e7 | – | 1.41e7 | 2.71e7 |
| CG18336 | 1 | 2.52e7 | 4.35e7 | – | 1.26e7 | 1.83e7 |
| CG33476 | 1 | 5.06e7 | 3.56e7 | – | 2.97e7 | 1.67e7 |
| arr | 1 | 3.03e7 | 3.79e7 | – | 1.58e7 | 1.74e7 |
| PpV | 1 | 2.04e7 | 3.91e7 | – | 1.17e7 | 1.97e7 |
| PpV | 2 | 3.62e7 | 4.25e7 | – | 1.91e7 | 1.96e7 |
| Ret | 1 | 3.17e7 | – | – | 1.49e7 | – |
| Ret | 2 | 6.35e7 | 5.27e7 | – | 2.88e7 | 2.19e7 |
| CIAPIN1 | 1 | 5.21e7 | – | – | 2.69e7 | – |
| Plekhm1 | 1 | 4.52e7 | 5.05e7 | – | 2.17e7 | 2.13e7 |
| Odc2 | 1 | 4.06e7 | 4.12e7 | – | 1.98e7 | 1.79e7 |
| Trxr1 | 1 | 2.23e7 | 2.41e7 | – | 1.21e7 | 1.18e7 |
| Trxr1 | 2 | 3.25e7 | 4.60e7 | – | 1.64e7 | 2.43e7 |
| CG11585 | 1 | 2.70e7 | 3.52e7 | – | 1.43e7 | 1.75e7 |
| sli | 1 | 3.30e7 | 3.24e7 | – | 1.39e7 | 1.49e7 |
| sli | 2 | 4.68e7 | 4.04e7 | – | 2.24e7 | 1.80e7 |
| CG13144 | 1 | 3.66e7 | 4.40e7 | – | 1.84e7 | 1.90e7 |
| Lcp65Ag3 + Lcp65Ag2 + Lcp65Ag1 | 1 | 2.58e7 | 3.31e7 | – | 1.16e7 | 1.42e7 |
| Lcp65Ag3 + Lcp65Ag2 + Lcp65Ag1 | 2 | 2.57e7 | 3.41e7 | – | 1.19e7 | 1.44e7 |
| CG14230 | 1 | 2.44e7 | 2.10e7 | – | 1.29e7 | 1.02e7 |
| CG18747 | 1 | 3.96e7 | 2.90e7 | – | 1.97e7 | 1.57e7 |
| sotv + CG10731 | 1 | 4.73e7 | 4.14e7 | – | 2.02e7 | 2.02e7 |
| sotv + CG10731 | 2 | 5.16e7 | 4.21e7 | – | 2.26e7 | 2.04e7 |
| PolG1 | 1 | 4.84e7 | 3.53e7 | – | 2.17e7 | 1.46e7 |
| CG1360 | 1 | 3.20e7 | 4.22e7 | – | 1.78e7 | 1.89e7 |
| CG16727 | 1 | 3.94e7 | 4.11e7 | – | 5.88e7 | 1.89e7 |
| CG6749 | 1 | 2.68e7 | 4.78e7 | – | 1.49e7 | 1.99e7 |
| CG32079 | 1 | 4.61e7 | 4.30e7 | – | 2.81e7 | 1.93e7 |
| CG14694 | 1 | 3.80e7 | 3.21e7 | – | 1.80e7 | 1.67e7 |
| mRpL18 | 1 | 4.27e7 | 3.63e7 | – | 1.94e7 | 1.44e7 |
